Data from publication PMC11046805.
Results are given in words; binding and its absence hold for the method and conditions named. In cells and extracts the contact can be indirect. Some binding calls cover weakened binding; strength is not graded here.

Protein sequences, listed by entry. Tags and fused reporters are not part of them. Lines headed by an entry give the natural chain unless they say otherwise; changes in a name come on top.
UniProt P05556: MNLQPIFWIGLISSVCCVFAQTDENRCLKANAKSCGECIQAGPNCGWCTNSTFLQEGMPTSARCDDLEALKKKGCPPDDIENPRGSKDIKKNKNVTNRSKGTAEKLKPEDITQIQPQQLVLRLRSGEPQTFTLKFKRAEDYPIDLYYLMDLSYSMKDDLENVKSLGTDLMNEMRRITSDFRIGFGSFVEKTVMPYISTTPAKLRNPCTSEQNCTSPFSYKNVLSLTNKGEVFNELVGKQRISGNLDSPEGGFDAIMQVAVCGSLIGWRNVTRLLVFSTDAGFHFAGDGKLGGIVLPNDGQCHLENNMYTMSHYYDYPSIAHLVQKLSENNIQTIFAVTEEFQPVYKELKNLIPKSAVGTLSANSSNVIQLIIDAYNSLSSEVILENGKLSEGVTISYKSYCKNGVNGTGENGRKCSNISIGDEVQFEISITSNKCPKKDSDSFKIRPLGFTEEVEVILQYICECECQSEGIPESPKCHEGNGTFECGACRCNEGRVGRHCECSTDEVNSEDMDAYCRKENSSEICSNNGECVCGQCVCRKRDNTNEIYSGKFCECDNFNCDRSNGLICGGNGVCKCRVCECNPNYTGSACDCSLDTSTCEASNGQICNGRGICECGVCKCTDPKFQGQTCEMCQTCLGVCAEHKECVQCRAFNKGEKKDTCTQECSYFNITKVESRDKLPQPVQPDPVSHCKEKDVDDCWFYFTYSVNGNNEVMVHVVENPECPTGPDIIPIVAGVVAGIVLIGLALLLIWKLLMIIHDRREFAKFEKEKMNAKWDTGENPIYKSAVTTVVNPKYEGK

Target: T1, Integrin α11 (human (endogenous in MCF-7 and derived TAMR/ADR cells)) (UniProt Q9UKX5)
T1 sequence: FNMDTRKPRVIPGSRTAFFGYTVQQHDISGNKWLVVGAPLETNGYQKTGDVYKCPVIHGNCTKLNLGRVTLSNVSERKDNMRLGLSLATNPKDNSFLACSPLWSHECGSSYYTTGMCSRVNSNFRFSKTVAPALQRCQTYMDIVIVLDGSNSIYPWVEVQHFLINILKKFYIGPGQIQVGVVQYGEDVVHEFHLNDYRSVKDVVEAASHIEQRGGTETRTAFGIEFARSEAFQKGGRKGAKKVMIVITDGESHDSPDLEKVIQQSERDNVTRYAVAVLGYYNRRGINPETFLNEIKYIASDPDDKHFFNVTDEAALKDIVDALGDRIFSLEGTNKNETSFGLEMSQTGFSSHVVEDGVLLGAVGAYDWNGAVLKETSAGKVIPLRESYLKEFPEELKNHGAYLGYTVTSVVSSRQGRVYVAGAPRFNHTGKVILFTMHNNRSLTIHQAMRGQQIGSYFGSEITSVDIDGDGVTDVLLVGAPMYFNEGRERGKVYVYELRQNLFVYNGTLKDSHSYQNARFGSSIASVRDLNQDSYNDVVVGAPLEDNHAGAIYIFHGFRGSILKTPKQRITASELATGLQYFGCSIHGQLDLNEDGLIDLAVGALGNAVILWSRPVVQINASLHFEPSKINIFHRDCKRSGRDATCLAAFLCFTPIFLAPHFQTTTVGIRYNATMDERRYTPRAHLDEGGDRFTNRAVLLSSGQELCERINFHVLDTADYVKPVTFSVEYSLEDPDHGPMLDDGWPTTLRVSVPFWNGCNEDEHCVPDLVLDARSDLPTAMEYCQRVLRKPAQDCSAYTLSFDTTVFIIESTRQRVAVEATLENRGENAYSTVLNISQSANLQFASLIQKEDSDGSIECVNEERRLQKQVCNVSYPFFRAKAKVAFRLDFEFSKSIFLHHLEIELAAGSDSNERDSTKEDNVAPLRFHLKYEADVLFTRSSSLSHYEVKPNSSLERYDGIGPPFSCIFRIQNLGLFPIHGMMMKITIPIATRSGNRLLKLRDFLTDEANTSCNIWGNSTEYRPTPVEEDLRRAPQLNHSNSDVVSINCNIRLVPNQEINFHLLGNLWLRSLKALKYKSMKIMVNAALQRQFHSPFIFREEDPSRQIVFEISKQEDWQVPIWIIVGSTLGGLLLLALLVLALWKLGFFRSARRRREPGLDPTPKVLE
Assay: co-IP; 100 µg total proteins immunoprecipitated with IP-grade integrin α11 antibody or IgG (1 mg/mL), 16 h at 4 °C; Protein A agarose beads 4 h at 4 °C; washed with PBS; western blot for integrin β1

Integrin β1 (from UniProt P05556 21-798) (receptor)
binding: binds
